From US4788186A, “6-substituted-s-triazolo[3,4-a]phthalazine derivatives” (Gruppo Lepetit S.p.A., priority 1982, dated 1988)

Target: rat brain benzodiazepine receptors (3H-diazepam receptor)
Assay: benzodiazepine receptor binding test in vitro (inhibition of specific 3H-diazepam binding to rat brain membranes)
Excerpt: The pharmacological properties of the compounds of the present invention were first investigated by submitting them to the benzodiazepine receptor binding test in vitro.

Row | SMILES | Ki (rat brain membranes, Ki = IC50/(1+C/KD), read-out: Ki (inhibitor constant, 3H-diazepam binding)) [nM] | Kd (3H-diazepam, used in the calculation of Ki, read-out: KD (affinity constant of 3H-diazepam for its receptor)) [nM]
1 | CN1C(=O)CN=C(c2ccccc2)c2cc(Cl)ccc21 [Diazepam, reference compound] | 1.89 | –
2 | CN1C(=O)CN=C(c2ccccc2)c2cc(Cl)ccc21 [^3 H-diazepam, reference compound] | – | 3.4
